# This is one part of the list.
# B1: SspB C123 (Streptococcus gordonii), Q54186 (protein)
# chain: MAHFHYSSLLAQPQINKEIKNEDGVDIDRTLVAKQSIGKFELKTEALTAGRPKTTSFVLVDPLPTGYKFDLDATKAASTGFDTTYDEASHTVTFKATDETLATYNADLTKPVETLHPTVVGRVLNDGATYTNNFTLTVNDAYGIKSNVVRVTTPGKPNDPDNPNNNYIKPTKVNKNKEGLNIDGKEVLAGSTNYYELTWDLDQYKGDKSSKEAIQNGFYYVDDYPEEALDVRPDLVKVADEKGNQVSGVSVQQYDSLEAAPKKVQDLLKKANITVKGAFQLFSADNPEEFYKQYVSTGTSLVITDPMTVKSEFGKTGGKYENKAYQIDFGNGYATEVVVNNVPKITPKKDVTVSLDPTSENLDGQTVQLYQTFNYRLIGGFIPQNHSEELEDYSFVDDYDQAGDQYTGNYKTFSSLNLTMKDGSVIKAGTDLTSQTTAETDATNGIVTVRFKEDFLQKISLDSPFQAETYLQMRRIAIGTFENTYVNTVNKVAYASAAALEHHHHHH
# Legend:
# Assay in all cases: glycan array binding signal (z-score within array); higher = stronger binding
# Details in all cases: glycan notation: IUPAC condensed, linker removed
# [1] = biological target: Fuc(a1-2)Gal6S(b1-3)GlcNAc
# Summary of the method: (§1)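 Glycan array binding is given as a within-array Z-score, which can be read as non-binding when negative. The arrays, 3228 of them, came from the Consortium for Functional Glycomics database and were retained only where the protein sequence was available. Z-scores were averaged across arrays of the same protein sequence at different concentrations or buffers and across linkers.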
# [2] = biological target: Fuc(a1-2)Gal6S(b1-3)GlcNAc6S
# Summary of the method: as §1
# [3] = biological target: Fuc(a1-2)Gal6S(b1-4)Glc
# Summary of the method: as §1
# [4] = biological target: Fuc(a1-2)Gal6S(b1-4)Glc6S
# Summary of the method: as §1
# [5] = biological target: Fuc(a1-2)[Gal(a1-3)]Gal
# Summary of the method: as §1
# [6] = biological target: Fuc(a1-2)[Gal(a1-3)]Gal(b1-3)GalNAc
# Summary of the method: as §1
# [7] = biological target: Fuc(a1-2)[Gal(a1-3)]Gal(b1-3)GalNAc(b1-3)Gal(a1-4)Gal(b1-4)Glc
# Summary of the method: as §1
# [8] = biological target: Fuc(a1-2)[Gal(a1-3)]Gal(b1-3)GlcNAc
# Summary of the method: as §1
# [9] = biological target: Fuc(a1-2)[Gal(a1-3)]Gal(b1-3)GlcNAc(b1-2)Man(a1-3)[Fuc(a1-2)[Gal(a1-3)]Gal(b1-3)GlcNAc(b1-2)Man(a1-6)]Man(b1-4)GlcNAc(b1-4)GlcNAc
# Summary of the method: as §1
# [10] = biological target: Fuc(a1-2)[Gal(a1-3)]Gal(b1-3)GlcNAc(b1-2)Man(a1-3)[Fuc(a1-2)[Gal(a1-3)]Gal(b1-3)GlcNAc(b1-2)Man(a1-6)]Man(b1-4)GlcNAc(b1-4)[Fuc(a1-6)]GlcNAc
# Summary of the method: as §1
# [11] = biological target: Fuc(a1-2)[Gal(a1-3)]Gal(b1-3)GlcNAc(b1-3)GalNAc
# Summary of the method: as §1
# [12] = biological target: Fuc(a1-2)[Gal(a1-3)]Gal(b1-3)GlcNAc(b1-6)GalNAc
# Summary of the method: as §1
# [13] = biological target: Fuc(a1-2)[Gal(a1-3)]Gal(b1-4)Glc
# Summary of the method: as §1
# [14] = biological target: Fuc(a1-2)[Gal(a1-3)]Gal(b1-4)GlcNAc
# Summary of the method: as §1
# [15] = biological target: Fuc(a1-2)[Gal(a1-3)]Gal(b1-4)GlcNAc(b1-2)Man
# Summary of the method: as §1
# [16] = biological target: Fuc(a1-2)[Gal(a1-3)]Gal(b1-4)GlcNAc(b1-2)Man(a1-3)[Fuc(a1-2)[Gal(a1-3)]Gal(b1-4)GlcNAc(b1-2)Man(a1-6)]Man(b1-4)GlcNAc(b1-4)GlcNAc
# Summary of the method: as §1
# [17] = biological target: Fuc(a1-2)[Gal(a1-3)]Gal(b1-4)GlcNAc(b1-2)Man(a1-3)[Fuc(a1-2)[Gal(a1-3)]Gal(b1-4)GlcNAc(b1-2)Man(a1-6)]Man(b1-4)GlcNAc(b1-4)[Fuc(a1-6)]GlcNAc
# Summary of the method: as §1
# [18] = biological target: Fuc(a1-2)[Gal(a1-3)]Gal(b1-4)GlcNAc(b1-3)GalNAc
# Summary of the method: as §1
# [19] = biological target: Fuc(a1-2)[Gal(a1-3)]Gal(b1-4)GlcNAc(b1-6)GalNAc
# Summary of the method: as §1
# [20] = biological target: Fuc(a1-2)[Gal(a1-3)]Gal(b1-4)[Fuc(a1-3)]Glc
# Summary of the method: as §1
# [21] = biological target: Fuc(a1-2)[Gal(a1-3)]Gal(b1-4)[Fuc(a1-3)]GlcNAc
# Summary of the method: as §1
# [22] = biological target: Fuc(a1-2)[Gal(a1-3)]Gal(b1-4)[Fuc(a1-3)]GlcNAc(b1-3)GalNAc
# Summary of the method: as §1
# [23] = biological target: Fuc(a1-2)[Gal(a1-4)]Gal(b1-4)GlcNAc
# Summary of the method: as §1
# [24] = biological target: Fuc(a1-2)[GalNAc(a1-3)]Gal
# Summary of the method: as §1
# [25] = biological target: Fuc(a1-2)[GalNAc(a1-3)]Gal(b1-3)GalNAc(a1-3)[Fuc(a1-2)]Gal(b1-4)GlcNAc
# Summary of the method: as §1
# [26] = biological target: Fuc(a1-2)[GalNAc(a1-3)]Gal(b1-3)GalNAc(b1-3)Gal(a1-4)Gal(b1-4)Glc
# Summary of the method: as §1
# [27] = biological target: Fuc(a1-2)[GalNAc(a1-3)]Gal(b1-3)GlcNAc
# Summary of the method: as §1
# [28] = biological target: Fuc(a1-2)[GalNAc(a1-3)]Gal(b1-3)GlcNAc(b1-2)Man(a1-3)[Fuc(a1-2)[GalNAc(a1-3)]Gal(b1-3)GlcNAc(b1-2)Man(a1-6)]Man(b1-4)GlcNAc(b1-4)GlcNAc
# Summary of the method: as §1
# [29] = biological target: Fuc(a1-2)[GalNAc(a1-3)]Gal(b1-3)GlcNAc(b1-2)Man(a1-3)[Fuc(a1-2)[GalNAc(a1-3)]Gal(b1-3)GlcNAc(b1-2)Man(a1-6)]Man(b1-4)GlcNAc(b1-4)[Fuc(a1-6)]GlcNAc
# Summary of the method: as §1
# [30] = biological target: Fuc(a1-2)[GalNAc(a1-3)]Gal(b1-3)GlcNAc(b1-3)GalNAc
# Summary of the method: as §1
# [31] = biological target: Fuc(a1-2)[GalNAc(a1-3)]Gal(b1-3)GlcNAc(b1-6)GalNAc
# Summary of the method: as §1
# [32] = biological target: Fuc(a1-2)[GalNAc(a1-3)]Gal(b1-4)Glc
# Summary of the method: as §1
# [33] = biological target: Fuc(a1-2)[GalNAc(a1-3)]Gal(b1-4)GlcNAc
# Summary of the method: as §1
# [34] = biological target: Fuc(a1-2)[GalNAc(a1-3)]Gal(b1-4)GlcNAc(b1-2)Man
# Summary of the method: as §1
# [35] = biological target: Fuc(a1-2)[GalNAc(a1-3)]Gal(b1-4)GlcNAc(b1-2)Man(a1-3)[Fuc(a1-2)[GalNAc(a1-3)]Gal(b1-4)GlcNAc(b1-2)Man(a1-6)]Man(b1-4)GlcNAc(b1-4)GlcNAc
# Summary of the method: as §1
# [36] = biological target: Fuc(a1-2)[GalNAc(a1-3)]Gal(b1-4)GlcNAc(b1-2)Man(a1-3)[Fuc(a1-2)[GalNAc(a1-3)]Gal(b1-4)GlcNAc(b1-2)Man(a1-6)]Man(b1-4)GlcNAc(b1-4)[Fuc(a1-6)]GlcNAc
# Summary of the method: as §1
# [37] = biological target: Fuc(a1-2)[GalNAc(a1-3)]Gal(b1-4)GlcNAc(b1-3)Gal(b1-4)GlcNAc
# Summary of the method: as §1
# [38] = biological target: Fuc(a1-2)[GalNAc(a1-3)]Gal(b1-4)GlcNAc(b1-3)Gal(b1-4)GlcNAc(b1-3)Gal(b1-4)GlcNAc
# Summary of the method: as §1
# [39] = biological target: Fuc(a1-2)[GalNAc(a1-3)]Gal(b1-4)GlcNAc(b1-3)GalNAc
# Summary of the method: as §1
# [40] = biological target: Fuc(a1-2)[GalNAc(a1-3)]Gal(b1-4)GlcNAc(b1-3)[Fuc(a1-2)[GalNAc(a1-3)]Gal(b1-4)GlcNAc(b1-6)]GalNAc
# Summary of the method: as §1
# [41] = biological target: Fuc(a1-2)[GalNAc(a1-3)]Gal(b1-4)GlcNAc(b1-6)GalNAc
# Summary of the method: as §1
# [42] = biological target: Fuc(a1-2)[GalNAc(a1-3)]Gal(b1-4)[Fuc(a1-3)]GlcNAc
# Summary of the method: as §1
# [43] = biological target: Fuc(a1-2)[GalNAc(a1-3)]Gal(b1-4)[Fuc(a1-3)]GlcNAc(b1-3)GalNAc
# Summary of the method: as §1
# [44] = biological target: Fuc(a1-2)[GalNAc(a1-4)]Gal(b1-4)GlcNAc
# Summary of the method: as §1
# [45] = biological target: Fuc(a1-2)[GalNAc(b1-3)]Gal
# Summary of the method: as §1
binder,measurement,setting,value
B1,glycan array binding signal (z-score),[1],-0.547
same,glycan array binding signal (z-score),[2],0.031
same,glycan array binding signal (z-score),[3],-0.489
same,glycan array binding signal (z-score),[4],-0.576
same,glycan array binding signal (z-score),[5],-0.352
same,glycan array binding signal (z-score),[6],-0.114
same,glycan array binding signal (z-score),[7],-1.04
same,glycan array binding signal (z-score),[8],-0.253
same,glycan array binding signal (z-score),[9],0.387
same,glycan array binding signal (z-score),[10],1.38
same,glycan array binding signal (z-score),[11],-0.239
same,glycan array binding signal (z-score),[12],-0.18
same,glycan array binding signal (z-score),[13],-0.349
same,glycan array binding signal (z-score),[14],-0.371
same,glycan array binding signal (z-score),[15],-1.81
same,glycan array binding signal (z-score),[16],1.42
same,glycan array binding signal (z-score),[17],0.612
same,glycan array binding signal (z-score),[18],-0.581
same,glycan array binding signal (z-score),[19],-0.149
same,glycan array binding signal (z-score),[20],-0.277
same,glycan array binding signal (z-score),[21],-0.222
same,glycan array binding signal (z-score),[22],0.504
same,glycan array binding signal (z-score),[23],2.16
same,glycan array binding signal (z-score),[24],-0.539
same,glycan array binding signal (z-score),[25],-1.55
same,glycan array binding signal (z-score),[26],0.965
same,glycan array binding signal (z-score),[27],0.229
same,glycan array binding signal (z-score),[28],-0.312
same,glycan array binding signal (z-score),[29],-0.231
same,glycan array binding signal (z-score),[30],-0.962
same,glycan array binding signal (z-score),[31],-0.099
same,glycan array binding signal (z-score),[32],1.36
same,glycan array binding signal (z-score),[33],-0.406
same,glycan array binding signal (z-score),[34],2.05
same,glycan array binding signal (z-score),[35],0.49
same,glycan array binding signal (z-score),[36],-0.199
same,glycan array binding signal (z-score),[37],-2.11
same,glycan array binding signal (z-score),[38],1.18
same,glycan array binding signal (z-score),[39],2.16
same,glycan array binding signal (z-score),[40],0.72
same,glycan array binding signal (z-score),[41],-1.47
same,glycan array binding signal (z-score),[42],1.45
same,glycan array binding signal (z-score),[43],0.243
same,glycan array binding signal (z-score),[44],-0.619
same,glycan array binding signal (z-score),[45],1.69

# Given with tabs: part of the list above
binder	measurement	setting	value
B1	glycan array binding signal (z-score)	[37]	-2.11
same	glycan array binding signal (z-score)	[38]	1.18

# Quoted at random: two records from the list
binder,measurement,setting,value
B1,glycan array binding signal (z-score),[43],0.243
same,glycan array binding signal (z-score),[4],-0.576

# From the supplement of paper PMC8728848
